Paper PMC3938535
Results are given in words; binding and its absence hold for the method and conditions named. In cells and extracts the contact can be indirect. Some binding calls cover weakened binding; strength is not graded here. Sequences can lack the tags named with a protein.

Molecular target: T1, GST-VosA (A. nidulans) (UniProt Q5BBX1)
T1 sequence: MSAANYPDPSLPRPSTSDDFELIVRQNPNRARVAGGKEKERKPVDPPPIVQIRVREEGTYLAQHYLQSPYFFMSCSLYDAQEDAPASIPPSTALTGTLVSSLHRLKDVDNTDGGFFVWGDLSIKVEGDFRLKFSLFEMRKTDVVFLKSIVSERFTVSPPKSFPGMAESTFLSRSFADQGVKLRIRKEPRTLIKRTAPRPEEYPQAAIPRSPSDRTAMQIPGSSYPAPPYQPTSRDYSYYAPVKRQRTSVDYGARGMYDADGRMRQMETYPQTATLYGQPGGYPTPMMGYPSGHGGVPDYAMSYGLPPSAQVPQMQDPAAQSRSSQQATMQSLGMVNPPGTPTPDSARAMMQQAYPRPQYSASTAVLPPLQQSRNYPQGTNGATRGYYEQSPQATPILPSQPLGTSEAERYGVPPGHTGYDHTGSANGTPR
Assay: pull-down; GST-VosA on glutathione beads; equal amounts of in vitro translated 35S-labelled proteins added; 4°C overnight; washed three times with lysis buffer; SDS-PAGE and autoradiography; glutathione bead-GST as control; only the target purified

B1: VelC (in vitro translated, 35S-labelled, from pNI42) (protein, UniProt Q5BBM1 1-524)
chain: MTTHVGPQTTLLHQTGQISALIAGEAVQTCEASSCQMSGTPFQQWTYVTEGRYTNARTHPSDEDRRRQTTVSNPRYLAQEPPRFLLPTAQNNAPTMSQSATYSTLPVQGFPEQNRVLDNRSDPKYGPLPATTGSLAQYSIQRPSTSRNMENAGSSSSYYDAPSCSRGSVGSIGRMNDLDSQYSGSTTAFPSPVHSDSSPIYPAIAPISGYQQQLPIHQRHTTSSMPSGFENLLHHHSTSPSPPPRCASSSSRYRLFIRQQPLAARACGAGDRDRRPVDPPPIIQLLLTEFNPNSEKDRSILQDPRFTVGCLLYPVRNPSYLPGSGSGAGSSDTNTNSNDKSRHESMSSYSQLGINLEDSHATGQSTPLLSGKAFVSPFFVDEEPDPNTAPAHPSSTDDSTYDASPRTVTHRFRNRPLPKPPACFFIFSDLSVRTAGLYRLQFRLMNWGSIEDTGQSMPILAEVWSEPFRVCAAKDFPGMRDSSLLTLRLKELGFVELKTRGQGMGKGRRVGIGSSKVSSRARVE
modifications: [35S]-methionine label
**Q.** With B1 as the binder, how does the binding read?
**A.** binds
